In PubChem BioAssay AID2551 (National Center for Advancing Translational Sciences (NCATS), 2010):
About 17,000 (5.5%) of roughly 310,000 compounds were called active. The inconclusive results got no clear call from the source; some entries with a clear call stand among them for comparison. Calls come from the whole dose curve; as a rule, active = well fitted inhibition curve with a large enough effect; inconclusive = small, poorly fitted or top-dose-only effect, or effect the other way; inactive = no such curve, though single readings can be large or run the other way. Where the call is inconclusive, the potency comes from a doubtful curve fit.

The chains behind the UniProt entries cited, without tags or fusion partners. Where a name states a change or a piece, a line headed by the entry shows the natural chain unless it says otherwise.
UniProt P51450: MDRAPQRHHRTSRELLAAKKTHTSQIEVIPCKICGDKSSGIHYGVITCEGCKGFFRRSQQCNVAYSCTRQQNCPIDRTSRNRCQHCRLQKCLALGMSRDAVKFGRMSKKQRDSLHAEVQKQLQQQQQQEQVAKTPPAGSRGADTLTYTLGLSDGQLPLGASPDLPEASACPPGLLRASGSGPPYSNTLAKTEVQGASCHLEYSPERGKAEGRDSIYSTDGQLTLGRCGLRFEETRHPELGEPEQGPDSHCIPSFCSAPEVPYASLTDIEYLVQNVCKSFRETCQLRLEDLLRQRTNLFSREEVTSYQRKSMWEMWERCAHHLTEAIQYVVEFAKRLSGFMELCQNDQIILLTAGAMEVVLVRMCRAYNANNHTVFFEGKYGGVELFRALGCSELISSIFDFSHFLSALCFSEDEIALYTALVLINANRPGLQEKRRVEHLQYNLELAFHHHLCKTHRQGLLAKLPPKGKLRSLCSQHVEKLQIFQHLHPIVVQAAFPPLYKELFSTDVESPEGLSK

target: Nuclear receptor ROR-gamma (Mus musculus) (UniProt P51450); assay: qHTS for inhibitors of ROR gamma transcriptional activity; conditions: Drosophila S2 Gal4-RORgamma UAS-luciferase reporter, 20 h; activity change, negative = inhibition: at 53.6 µM (top of the series); note: nearly all actives have a fitted effect of over 60% in size
Outline: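 Luciferase reporter read in Schneider cells carrying Gal4-RORγ (mouse) and UAS-Photinus luciferase; cells given compound 1 h before 700 uM copper sulfate induction, then incubated 20 h at ambient temperature.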
% is set by controls: 0 for no effect and ±100 for the full control effect; potency is the fitted concentration of half-maximal effect.

Compound | Potency | activity change, negative = inhibition
C=CCSc1nnnn1-c1ccc(OC)cc1 | inconclusive: 11.2 µM [activator, single point] | 
CCN(CC)CCCNC(=O)c1ccc2c(SCC(=O)O)c3c(nc2c1)CCC3 |  | inactive: -5.03%
COC(CNC(=O)c1ccc(N2CCc3ccccc32)c([N+](=O)[O-])c1)OC | inconclusive: 35.5 µM [inhibitor, single point] | 
O=C(/C=C(/c1ccc(Cl)cc1)n1cncn1)c1ccccc1 |  | inactive: 37.6%
Cc1ccc(-n2c(SCC(=O)OC(C)C)nnc2-c2ccco2)cc1 | inconclusive: 2 µM [activator, partial curve] | 
O=C(COC(=O)c1ccccc1N1C(=O)C2C3CCC(C3)C2C1=O)c1ccccc1 (centres undefined) |  | inactive: 12.5%
Cc1ccc(NS(=O)(=O)c2cc(OCC(N)=O)c(C)cc2Cl)cc1C | inconclusive: 17.8 µM [activator, single point] | 
COc1ccc(C)cc1NC(=O)CSc1nc2ccccc2nc1N1CCCCC1 | inconclusive: 11.2 µM [inhibitor, partial curve] | 
O=C(CCc1nc(-c2ccccc2Cl)no1)NCCc1ccccc1 |  | inactive: 1.32%
CC1CCc2cc(F)ccc2N1S(=O)(=O)c1ccc(Cl)nc1 (centres undefined) | inconclusive: 12.6 µM [inhibitor, partial curve] | 
CC(C)(C)OC(=O)NCCc1nnc(S(=O)(=O)Cc2ccc(Cl)cc2Cl)o1 | inconclusive: 22.4 µM [inhibitor, single point] | 
COc1ccc(NS(=O)(=O)c2ccc3c(c2)NC(=O)CO3)c(OC)c1 |  | inactive: 11.1%
Cc1ccc(C)c(N(Cc2ccccc2F)S(C)(=O)=O)c1 | inconclusive: 0.1 µM [activator, full curve, poor fit] | 
O=C(c1ccccc1Cl)N1CCC(c2nc3c(nnn3Cc3ccco3)c(=O)[nH]2)CC1 | inconclusive: 5.62 µM [activator, single point] | 
COc1cccc(C2C(C(=O)Nc3ccc(C)cc3C)=C(C)Nc3ncnn32)c1OC (centres undefined) | inconclusive: 7.08 µM [activator, partial curve] | 
COc1c(C)cccc1C(=O)NC(=S)Nc1ccccc1N1CCCC1 | active: 10 µM | 
O=C(Cc1cccs1)N1CCN(c2ccc([N+](=O)[O-])cc2)CC1 | inconclusive: 35.5 µM [activator, single point] | 
NC(=O)COC(=O)c1cccc(NS(=O)(=O)/C=C/c2ccccc2)c1 | inconclusive: 35.5 µM [activator, single point] | 
CCCCCC/C=N/Nc1nnc(Cc2ccccc2)c(=O)[nH]1 | inconclusive: 5.01 µM [inhibitor, partial curve, poor fit] | 
NCCC(=O)N[C@@H](Cc1cnc[nH]1)C(=O)O | inconclusive: 2.24 µM [inhibitor, full curve, poor fit] | 
COc1ccc(Cc2nnc(NC(=O)c3cccc([N+](=O)[O-])c3)s2)cc1 | inconclusive: 35.5 µM [inhibitor, single point] | 
COc1cnc(-c2ccccn2)nc1Oc1ccc(C(C)(C)C)cc1 | active: 5.62 µM | 

Of the compounds above, these have a tert-butyl group.
Compound | Potency | activity change, negative = inhibition
CC(C)(C)OC(=O)NCCc1nnc(S(=O)(=O)Cc2ccc(Cl)cc2Cl)o1 | inconclusive: 22.4 µM [inhibitor, single point] | 
COc1cnc(-c2ccccn2)nc1Oc1ccc(C(C)(C)C)cc1 | active: 5.62 µM | 

Later entries.

Compound | Potency | activity change, negative = inhibition
O=C1c2ccccc2C2=Nc3ccccc3SC(c3ccc(Cl)cc3)C12 (centres undefined) | inconclusive: 11.2 µM [activator, partial curve] | 
O=C(N/N=C/c1cc([N+](=O)[O-])ccc1O)c1cc(-c2ccccc2)nc2ccccc12 | active: 3.16 µM | 
COc1cc(CNc2ccccc2)c([N+](=O)[O-])cc1OC |  | inactive: 26.8% [at 1.91 µM]
Cc1nn(-c2ccccc2)c(Cl)c1/C=C(\C#N)C(=O)NC(C)C | inconclusive: 35.5 µM [inhibitor, single point] | 
O=C(NCCc1ccccc1)C1CCN(S(=O)(=O)N2CCOCC2)CC1 |  | inactive: 4.77%
CC(=O)NC(=S)Nc1cc(C(F)(F)F)ccc1N1CCOCC1 | active: 12.6 µM | 
CCN(CCN1CCCC1)C(=O)C1CCC(=O)N(CCCN2CCOCC2)C1 (centres undefined) | inconclusive: 35.5 µM [inhibitor, single point] | 
CC1=CC(C)C2C(=O)N(c3ccccc3)C(=O)C2C1 (centres undefined) | inconclusive: 6.31 µM [activator, partial curve] | 
O=c1c2ccccc2nnn1CSc1ccccc1 | inconclusive: 15.8 µM [inhibitor, single point] | 
O=C(NCc1ccccn1)c1ccc2nc(-c3ccco3)c(-c3ccco3)nc2c1 | inconclusive: 15.8 µM [inhibitor, single point] | 
CCOc1cc(/C=N/NC(=O)CN(CCc2ccccc2)S(=O)(=O)c2ccc(NC(C)=O)cc2)ccc1O | inconclusive: 12.6 µM [activator, partial curve] | 
N#Cc1ccsc1NC(=O)CN1CCN(S(=O)(=O)c2ccc3ccccc3c2)CC1 | inconclusive: 35.5 µM [activator, single point] | 
CCOc1ccc(CNc2ccc3c(c2)ncn3C)cc1 |  | inactive: 3.47%
CC(NCc1ccc(OCc2ccc(Cl)cc2)cc1)C(O)c1ccccc1 (centres undefined) | active: 35.5 µM | 
Cc1cccc(CNc2ncnc3ccc(-c4ccccc4CN(C)C)cc23)c1 | inconclusive: 14.1 µM [inhibitor, partial curve, poor fit] | 
COc1ccc(-c2oc3ncnc(NCCCN(C)C)c3c2-c2ccc(OC)cc2)cc1 | inconclusive: 28.2 µM [inhibitor, single point] | 
Cc1ccc(N=C2NC(=O)C(CC(=O)NCc3ccccc3)S2)cc1C (centres undefined) | inconclusive: 25.1 µM [activator, single point] | 
CCOc1cc(Cl)c(NC(=O)CC)cc1OCC |  | inactive: -20.1%
CCOC(=O)c1c(C)[nH]c2cc(Br)c(O)cc12 | inconclusive: 5.62 µM [activator, partial curve] | 
CCc1cccc(CC)c1-n1c(SCC(=O)N2CCc3ccccc3C2)nnc1-c1cccnc1 | inconclusive: 17.8 µM [activator, single point] | 
Cc1ccc(C(=O)COC(=O)COc2ccccc2C)cc1 |  | inactive: 1.88%
CCC(C)NC(=O)c1ccc2nc(Cc3ccc(OC)cc3)oc2c1 (centres undefined) | inconclusive: 25.1 µM [activator, single point] | 
